The subject of data set [1] is RneN412 (RNase E catalytic region) (Anabaena PCC 7120). The experiment in a line: EMSA. The conditions noted are these: positive control, 2 mM EDTA, 5' monophosphate, 20 mM Tris-HCl pH 8.0, 200 mM NaCl, 0.1 mM DTT, 5% glycerol, 1 mg/ml BSA, 30 min at 30 C, 5% native PAGE at 4 C, recombinant protein, label: 3' FAM. In general terms: Mobility shift assays separate free from complexed probe on a gel.

The subject of data set [2] is RneN396 (RNase E catalytic core) (Anabaena PCC 7120). The experiment in a line: EMSA. The conditions noted are these: 2 mM EDTA, 5' monophosphate, 20 mM Tris-HCl pH 8.0, 200 mM NaCl, 0.1 mM DTT, 5% glycerol, 30 min at 30 C, recombinant protein, protein details: His tag (pET28a), label: 3' FAM.

Construct, isoform or probe ends are uncertain for at least one entry. For part of these data: Weaker means in comparison with the reference protein, sequence or condition of that experiment. At least one verdict rests on a figure or table, not on a statement of the authors.

Consider GAGACAGUAUUUG [5' p-LU13-FAM], for which the binding result in data set [1] was “binds”; in data set [2] (RebA (P1) preincubated at >2-fold molar excess, 1 mg/ml …, 5% native PAGE at 4 C) it was “binds more weakly”; in data set [2] (no RebA, 1 mg/ml BSA, 5% native PAGE at …) it was “binds”.

For the origin of these results see publication PMC10783494, “A conserved protein inhibitor brings under check the activity of RNase E in cyanobacteria”.
